Experimental data as given in paper PMC11599123.

Sequences of proteins named here, by UniProt entry; tags and fusion partners are left off.
UniProt P61589: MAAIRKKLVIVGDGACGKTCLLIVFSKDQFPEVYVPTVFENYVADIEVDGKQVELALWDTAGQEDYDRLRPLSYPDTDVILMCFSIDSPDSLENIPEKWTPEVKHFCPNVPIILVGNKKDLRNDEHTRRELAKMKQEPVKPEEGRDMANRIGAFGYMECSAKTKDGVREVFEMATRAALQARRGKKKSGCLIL

Target: T1, GST-RhoGDI1 (UniProt Q5XI73)
T1 sequence: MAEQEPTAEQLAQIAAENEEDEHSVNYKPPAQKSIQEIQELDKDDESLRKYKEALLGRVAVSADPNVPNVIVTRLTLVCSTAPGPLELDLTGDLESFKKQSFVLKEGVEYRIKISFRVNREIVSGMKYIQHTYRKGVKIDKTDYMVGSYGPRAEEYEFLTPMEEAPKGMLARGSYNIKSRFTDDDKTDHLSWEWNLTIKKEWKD
Assay: affinity purification with mass spectrometry; GST-RhoGDIs immobilised on glutathione agarose beads, incubated with RBL-2H3 lysate 1 h at 4 °C (50 mM HEPES pH 7.5, 50 mM NaCl, 5 mM MgCl2, 1% Triton X-100); in-gel digestion of bands from the 20 to 25 kDa region, nano-LC MS, SEQUEST; only the target purified

binding: binds
Substance: RhoA, endogenous in RBL-2H3 cells (from UniProt P61589 1-193)

Results are given in words; binding and its absence hold for the method and conditions named. Binding seen in cells or lysates may run through a third protein. Here binding means that the protein was enriched with, or labelled near, the bait; the list need not be complete. Sequences can lack the tags named with a protein.
